These are yes or no findings as the source states them, for the method shown. Binding seen in cells or lysates may run through a third protein. Some results given as binding are weak or reduced against the parent protein; the word gives no strength.
B1: Caprin-1 (protein, UniProt Q5M9G3 1-707)
chain: MPSATSHSGSGSKSSGPPPPSGSSGSEAAAGAAAPASQHPATGTGAVQTEAMKQILGVIDKKLRNLEKKKGKLDDYQERMNKGERLNQDQLDAVSKYQEVTNNLEFAKELQRSFMALSQDIQKTIKKTARREQLMREEAEQKRLKTVLELQYVLDKLGDDDVRTDLKQGLSGVPILSEEELSLLDEFYKLVDPERDMSLRLNEQYEHASIHLWDLLEGKEKPVCGTTYKALKEIVERVFQSNYFDSTHNHQNGLCEEEEAASAPIVEDQVAEAEPEPTEEYTEQSEVESTEYVNRQFMAETQFSSGEKEQVDEWAVETVEVVNSLQQQPQAASPSVPEPHSLTPVAQSDPLVRRQRVQDLMAQMQGPYNFIQDSMLDFENQTLDPAIVSAQPMNPTQNMDMPQLVCPQVHSESRLAQSNQVPVQPEATQVPLVSSTSEGYTASQPLYQPSHAAEQRPQKEPIDQIQATISLNTEQTTASSSLPAASQPQVFQAGASKPLHSSGINVNAAPFQSMQTVFNMNAPVPPVNEPETLKQQSQYQASYNQSFSSQPHQVEQTELQQDQLQTVVGTYHGSQDQPHQVPGNHQQPPQQSTGFPRSSQPYYNSRGVSRGGSRGARGLMNGYRGPANGFRGGYDGYRSSFSNTPNSGYTQSQFNAPRDYSGYQRDGYQQNFKRGSGQSGPRGAPRGRGGPPRPNRGMPQMNTQQVN

The chains behind the UniProt entries cited, without tags or fusion partners.
UniProt Q56B11: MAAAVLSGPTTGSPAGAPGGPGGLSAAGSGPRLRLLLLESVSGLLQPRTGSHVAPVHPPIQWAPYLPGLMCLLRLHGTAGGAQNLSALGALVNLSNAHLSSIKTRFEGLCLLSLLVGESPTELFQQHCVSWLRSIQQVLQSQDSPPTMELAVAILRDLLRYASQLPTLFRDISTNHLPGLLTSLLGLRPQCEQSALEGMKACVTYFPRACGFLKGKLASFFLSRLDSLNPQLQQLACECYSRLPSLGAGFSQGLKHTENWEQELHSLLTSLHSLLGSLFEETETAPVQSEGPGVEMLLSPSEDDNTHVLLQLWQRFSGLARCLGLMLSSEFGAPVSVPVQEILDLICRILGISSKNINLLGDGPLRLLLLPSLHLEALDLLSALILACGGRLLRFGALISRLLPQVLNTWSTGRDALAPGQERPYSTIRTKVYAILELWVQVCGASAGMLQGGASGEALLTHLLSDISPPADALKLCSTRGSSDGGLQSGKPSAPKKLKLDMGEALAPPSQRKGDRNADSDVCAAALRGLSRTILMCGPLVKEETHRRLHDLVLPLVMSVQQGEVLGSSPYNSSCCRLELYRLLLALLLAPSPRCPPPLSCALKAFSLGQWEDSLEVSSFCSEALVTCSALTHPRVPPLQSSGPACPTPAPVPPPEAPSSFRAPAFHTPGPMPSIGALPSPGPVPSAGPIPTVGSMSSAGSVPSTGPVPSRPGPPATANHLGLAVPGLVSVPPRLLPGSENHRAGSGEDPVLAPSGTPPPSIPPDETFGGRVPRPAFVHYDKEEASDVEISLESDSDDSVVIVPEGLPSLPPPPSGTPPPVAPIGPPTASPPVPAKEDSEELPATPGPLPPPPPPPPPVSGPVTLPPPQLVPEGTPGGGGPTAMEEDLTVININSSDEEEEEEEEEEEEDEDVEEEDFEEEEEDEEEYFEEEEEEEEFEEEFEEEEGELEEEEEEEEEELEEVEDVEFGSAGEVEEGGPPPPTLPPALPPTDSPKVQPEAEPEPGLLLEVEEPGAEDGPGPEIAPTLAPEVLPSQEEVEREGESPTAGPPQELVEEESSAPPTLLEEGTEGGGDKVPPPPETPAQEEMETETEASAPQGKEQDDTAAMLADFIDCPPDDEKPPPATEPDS
UniProt P15205: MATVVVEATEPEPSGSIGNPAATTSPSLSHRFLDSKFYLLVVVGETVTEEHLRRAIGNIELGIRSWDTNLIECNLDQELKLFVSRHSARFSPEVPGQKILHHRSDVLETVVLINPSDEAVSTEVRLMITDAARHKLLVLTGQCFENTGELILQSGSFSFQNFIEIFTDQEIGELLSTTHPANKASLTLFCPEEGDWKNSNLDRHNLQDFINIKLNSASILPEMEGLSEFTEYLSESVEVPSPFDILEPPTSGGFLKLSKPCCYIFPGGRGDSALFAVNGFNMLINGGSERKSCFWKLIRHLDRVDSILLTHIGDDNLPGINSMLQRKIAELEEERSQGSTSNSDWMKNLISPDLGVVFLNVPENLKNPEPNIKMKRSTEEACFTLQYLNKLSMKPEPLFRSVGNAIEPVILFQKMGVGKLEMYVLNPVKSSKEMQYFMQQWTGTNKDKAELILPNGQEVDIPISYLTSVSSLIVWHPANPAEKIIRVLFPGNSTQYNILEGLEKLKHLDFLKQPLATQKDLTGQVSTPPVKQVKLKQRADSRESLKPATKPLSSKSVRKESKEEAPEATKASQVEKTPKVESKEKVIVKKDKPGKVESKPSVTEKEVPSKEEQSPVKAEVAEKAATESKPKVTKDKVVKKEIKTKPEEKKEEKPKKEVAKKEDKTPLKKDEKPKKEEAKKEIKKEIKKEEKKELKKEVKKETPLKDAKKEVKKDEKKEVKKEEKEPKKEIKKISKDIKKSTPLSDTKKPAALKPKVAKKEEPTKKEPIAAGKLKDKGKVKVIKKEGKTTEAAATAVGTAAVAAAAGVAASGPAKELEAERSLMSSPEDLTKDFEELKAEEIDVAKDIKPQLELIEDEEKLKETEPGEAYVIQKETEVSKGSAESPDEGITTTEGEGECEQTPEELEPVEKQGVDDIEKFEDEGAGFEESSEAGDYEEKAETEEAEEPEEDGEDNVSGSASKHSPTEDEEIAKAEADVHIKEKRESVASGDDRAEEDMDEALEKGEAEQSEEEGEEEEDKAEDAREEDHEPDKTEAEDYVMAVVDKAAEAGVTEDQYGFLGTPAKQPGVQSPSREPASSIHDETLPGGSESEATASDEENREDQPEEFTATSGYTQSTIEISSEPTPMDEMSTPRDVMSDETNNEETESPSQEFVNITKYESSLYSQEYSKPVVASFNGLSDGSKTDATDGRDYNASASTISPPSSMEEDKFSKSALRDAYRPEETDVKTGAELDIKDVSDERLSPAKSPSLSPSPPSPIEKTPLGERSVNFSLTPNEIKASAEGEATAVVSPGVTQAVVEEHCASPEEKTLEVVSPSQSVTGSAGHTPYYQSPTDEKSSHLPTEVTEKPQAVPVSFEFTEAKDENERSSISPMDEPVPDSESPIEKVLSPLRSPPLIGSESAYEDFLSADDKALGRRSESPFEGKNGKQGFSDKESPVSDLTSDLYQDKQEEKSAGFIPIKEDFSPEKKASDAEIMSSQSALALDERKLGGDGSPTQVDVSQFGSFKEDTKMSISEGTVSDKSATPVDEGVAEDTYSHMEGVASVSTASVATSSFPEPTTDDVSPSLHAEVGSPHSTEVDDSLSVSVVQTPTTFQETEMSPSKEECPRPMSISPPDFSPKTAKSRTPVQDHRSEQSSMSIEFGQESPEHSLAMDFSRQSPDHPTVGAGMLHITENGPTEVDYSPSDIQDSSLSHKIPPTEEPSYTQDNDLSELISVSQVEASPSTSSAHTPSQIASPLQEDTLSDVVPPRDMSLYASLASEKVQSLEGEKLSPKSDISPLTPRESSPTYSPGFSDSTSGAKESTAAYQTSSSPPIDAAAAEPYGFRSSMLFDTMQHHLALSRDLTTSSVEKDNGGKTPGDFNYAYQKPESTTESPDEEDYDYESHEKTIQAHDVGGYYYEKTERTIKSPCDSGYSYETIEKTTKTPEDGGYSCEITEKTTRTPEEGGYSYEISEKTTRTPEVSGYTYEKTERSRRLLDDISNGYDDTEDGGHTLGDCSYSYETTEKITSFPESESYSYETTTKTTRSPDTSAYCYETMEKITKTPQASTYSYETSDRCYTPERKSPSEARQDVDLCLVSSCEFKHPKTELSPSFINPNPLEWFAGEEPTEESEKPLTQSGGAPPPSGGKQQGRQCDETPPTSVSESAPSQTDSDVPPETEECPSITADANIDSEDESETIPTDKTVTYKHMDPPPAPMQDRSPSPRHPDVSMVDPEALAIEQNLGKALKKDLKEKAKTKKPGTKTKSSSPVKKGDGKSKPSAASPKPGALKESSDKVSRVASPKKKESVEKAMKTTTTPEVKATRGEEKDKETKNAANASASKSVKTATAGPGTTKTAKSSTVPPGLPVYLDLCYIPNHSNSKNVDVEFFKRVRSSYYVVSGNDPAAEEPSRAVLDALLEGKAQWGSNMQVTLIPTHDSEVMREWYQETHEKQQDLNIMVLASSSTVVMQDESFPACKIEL

Assays:
[1] = target: T1, translation initiation factor eIF5b (rat (endogenous in Wistar rat cortex)) (UniProt B2GUV7); assay: cross-linking
T1 sequence: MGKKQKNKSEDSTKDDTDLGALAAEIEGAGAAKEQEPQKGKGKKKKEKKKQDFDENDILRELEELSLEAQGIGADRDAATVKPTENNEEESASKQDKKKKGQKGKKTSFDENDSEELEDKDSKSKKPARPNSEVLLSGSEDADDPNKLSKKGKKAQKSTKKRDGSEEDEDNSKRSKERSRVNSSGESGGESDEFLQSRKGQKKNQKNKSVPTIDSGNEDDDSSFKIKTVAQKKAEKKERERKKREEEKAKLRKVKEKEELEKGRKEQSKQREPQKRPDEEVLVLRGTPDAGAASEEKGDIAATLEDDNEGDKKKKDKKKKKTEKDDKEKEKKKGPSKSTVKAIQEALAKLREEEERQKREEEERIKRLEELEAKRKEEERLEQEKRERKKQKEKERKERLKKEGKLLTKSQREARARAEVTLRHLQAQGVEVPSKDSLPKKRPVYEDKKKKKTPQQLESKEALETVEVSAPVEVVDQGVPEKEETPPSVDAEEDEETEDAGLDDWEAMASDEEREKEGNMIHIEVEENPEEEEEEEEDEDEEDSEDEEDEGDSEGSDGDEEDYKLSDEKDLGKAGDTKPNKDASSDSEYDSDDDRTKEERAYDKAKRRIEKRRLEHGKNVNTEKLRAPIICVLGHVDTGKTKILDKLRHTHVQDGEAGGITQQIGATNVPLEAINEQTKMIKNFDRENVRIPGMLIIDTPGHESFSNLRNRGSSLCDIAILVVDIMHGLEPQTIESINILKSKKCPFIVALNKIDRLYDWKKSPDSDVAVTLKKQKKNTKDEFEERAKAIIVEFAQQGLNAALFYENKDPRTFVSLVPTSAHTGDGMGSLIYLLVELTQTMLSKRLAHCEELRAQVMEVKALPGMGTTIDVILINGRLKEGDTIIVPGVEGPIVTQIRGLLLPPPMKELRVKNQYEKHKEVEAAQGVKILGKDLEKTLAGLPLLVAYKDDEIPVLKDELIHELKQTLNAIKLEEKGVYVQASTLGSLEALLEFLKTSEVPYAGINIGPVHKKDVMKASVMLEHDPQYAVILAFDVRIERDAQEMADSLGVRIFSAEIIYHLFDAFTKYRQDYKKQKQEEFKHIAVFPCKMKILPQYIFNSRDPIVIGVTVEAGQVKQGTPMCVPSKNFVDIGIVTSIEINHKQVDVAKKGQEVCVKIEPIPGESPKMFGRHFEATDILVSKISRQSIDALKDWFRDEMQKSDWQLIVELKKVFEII

[2] = target: Proline-, glutamic acid- and leucine-rich protein 1 (PELP1) (rat (endogenous in Wistar rat cortex)) (UniProt Q56B11); assay: cross-linking

Molecule	binding [1]	binding [2]
microtubule associated protein Map1b (from UniProt P15205 1-2461)	binds	
B1		binds
